Experimental data published in article PMC5361591.
No constants are given. Whether binding was seen depends on the method and setting. Binding seen in cells or lysates may run through a third protein. Some results given as binding are weak or reduced against the parent protein; the word gives no strength.

Sequences of proteins named here, by UniProt entry; tags and fusion partners are left off.
UniProt Q8N122: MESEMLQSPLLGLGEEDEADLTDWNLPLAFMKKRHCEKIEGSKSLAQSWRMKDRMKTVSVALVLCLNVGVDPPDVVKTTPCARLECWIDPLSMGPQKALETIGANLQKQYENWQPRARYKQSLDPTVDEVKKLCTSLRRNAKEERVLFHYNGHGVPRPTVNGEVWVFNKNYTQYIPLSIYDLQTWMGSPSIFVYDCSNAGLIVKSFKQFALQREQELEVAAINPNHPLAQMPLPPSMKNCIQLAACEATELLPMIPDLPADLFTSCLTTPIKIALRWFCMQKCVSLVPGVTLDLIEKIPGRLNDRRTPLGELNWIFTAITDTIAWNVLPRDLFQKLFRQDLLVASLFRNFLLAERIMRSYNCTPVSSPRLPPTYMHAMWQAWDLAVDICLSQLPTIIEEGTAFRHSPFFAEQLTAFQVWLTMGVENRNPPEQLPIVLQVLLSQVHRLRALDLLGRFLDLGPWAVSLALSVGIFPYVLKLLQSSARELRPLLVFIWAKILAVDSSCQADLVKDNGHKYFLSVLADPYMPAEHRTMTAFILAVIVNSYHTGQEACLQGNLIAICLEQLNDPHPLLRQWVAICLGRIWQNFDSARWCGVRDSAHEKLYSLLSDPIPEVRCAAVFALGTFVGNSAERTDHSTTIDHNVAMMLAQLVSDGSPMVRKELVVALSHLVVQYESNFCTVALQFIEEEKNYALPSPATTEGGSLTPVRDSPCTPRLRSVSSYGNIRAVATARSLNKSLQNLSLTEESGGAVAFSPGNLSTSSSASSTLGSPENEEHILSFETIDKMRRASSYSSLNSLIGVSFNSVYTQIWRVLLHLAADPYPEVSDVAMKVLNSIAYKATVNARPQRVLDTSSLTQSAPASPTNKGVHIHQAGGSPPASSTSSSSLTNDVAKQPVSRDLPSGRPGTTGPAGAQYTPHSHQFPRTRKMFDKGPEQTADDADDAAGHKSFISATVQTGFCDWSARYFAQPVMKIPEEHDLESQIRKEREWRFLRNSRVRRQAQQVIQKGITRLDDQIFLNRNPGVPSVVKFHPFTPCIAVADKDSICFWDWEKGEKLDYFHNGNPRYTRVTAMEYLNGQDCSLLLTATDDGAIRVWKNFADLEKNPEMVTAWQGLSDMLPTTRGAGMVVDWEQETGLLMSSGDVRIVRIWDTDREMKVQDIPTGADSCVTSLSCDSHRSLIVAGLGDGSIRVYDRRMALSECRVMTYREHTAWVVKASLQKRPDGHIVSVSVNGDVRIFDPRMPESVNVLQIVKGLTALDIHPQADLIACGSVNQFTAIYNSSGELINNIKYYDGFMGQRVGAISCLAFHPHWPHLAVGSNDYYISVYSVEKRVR

Experiments:
[1] = biological target: MYC-PLK1^K82R (kinase-defective, dominant negative) (UniProt P53350); experiment: co-IP; HeLa cells overexpressing MYC-PLK1 (WT) or MYC-PLK1^K82R, full medium; IP with PLK1 or control (mock) antibodies, immunoblot for endogenous MTOR, RPTOR and LAMP2
[2] = biological target: MYC-tagged, wild-type PLK1 [MYC-PLK1 (WT)] (UniProt P53350); experiment: as above
[3] = biological target: PLK1 (polo like kinase 1) (human (endogenous in HeLa)) (UniProt P53350); experiment: co-IP; endogenous PLK1 precipitated with a PLK1 antibody or control (mock) IgG from HeLa lysates (40 mM HEPES, 120 mM NaCl, 0.3% CHAPS, pH 7.5; 4°C; Protein G Dynabeads), immunoblot; cells in full medium, or starved for amino acids (30 min) or for amino acids and growth factors (16 h), with shRPTOR or shControl, Torin1 or BI2536

Measured: binding

RPTOR/RAPTOR (regulatory associated protein of MTOR complex 1) (from UniProt Q8N122 1-1335)
binds: all assays above
